# Record: PubChem BioAssay AID1259308 (NCATS, 2017)
# Test: 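Candidate targets for better recombinant protein yield in mammalian cells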 (primary screen)
# Cells: human HEK293 embryonic kidney cells stably expressing firefly luciferase (HEK-CMV-Luc2-Hygro)
# Reagents: single siRNA against human genes, 0.8 pmol siRNA per well
# Timing: 72 h
# Read-out: 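Luciferase light (ONE-Glo) measured on one replicate plate set and viability (CellTiter-Glo) on the other, scaled to a negative control siRNA, with robust z-scores and luciferase per cell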
# Direction: total luciferase, z-score and total luciferase, % of control: higher = more reporter protein produced; luciferase per cell, z-score: higher = more reporter output per viable cell; viable cells, % of control: higher = more viable cells
# Active means: 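Active when the median/MAD z-score for overall luciferase is greater than 3; a gene was taken forward for validation with new siRNAs if at least two of its three siRNAs passed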
# Calls: active = raised luciferase; inactive = no rise
# The deposit covers about 59,000 reagents; this is a random part of them. In the full data, about 1,510 (2.6%) are marked active. 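Calls use total luciferase alone and ignore viability, so some active siRNAs may act by altering cell number.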 Reagents against one gene are numbered here. Reagent sequences are not shown.
gene,siRNA no.,"total luciferase, z-score","total luciferase, % of control","luciferase per cell, z-score","viable cells, % of control",Outcome
MIR3945HG,1,0.0844,83.6,0.485,82.2,inactive
MIR3945HG,2,0.219,86.2,0.135,93,inactive
MIR3945HG,3,-0.345,75,0.455,74.4,inactive
TESPA1,1,0.209,86,0.625,81.5,inactive
TESPA1,2,-1.02,61.6,-0.315,74.9,inactive
TESPA1,3,-2.51,31.9,-1.83,57.8,inactive
ARHGAP33,1,0.906,99.9,0.407,100,inactive
ARHGAP33,2,0.238,86.6,-0.321,105,inactive
ARHGAP33,3,1.97,121,1.51,91.1,inactive
NUDT16,1,0.851,98.8,0.342,101,inactive
NUDT16,2,0.0022,81.9,-0.308,99.3,inactive
NUDT16,3,0.461,91.1,-0.511,116,inactive
CCR8,1,0.51,92,0.603,87.7,inactive
CCR8,2,0.737,96.5,0.706,89.6,inactive
CCR8,3,0.432,90.5,0.0993,98.5,inactive
SERPINA12,1,1.86,119,1.24,95.9,inactive
SERPINA12,2,-0.505,71.8,-0.983,104,inactive
SERPINA12,3,-0.317,75.6,-0.752,103,inactive
ZBTB40,1,-1.03,61.4,-0.727,83,inactive
ZBTB40,2,-0.506,71.8,0.372,72.8,inactive
ZBTB40,3,0.177,85.4,0.115,92.6,inactive
RRAS,1,0.588,93.6,0.703,86.9,inactive
RRAS,2,1.33,108,1.46,82.6,inactive
RRAS,3,-0.717,67.6,-0.877,95.2,inactive

In a second layout: entries from further up.
RRAS #1: total luciferase, z-score = 0.588; total luciferase, % of control = 93.6; luciferase per cell, z-score = 0.703; viable cells, % of control = 86.9; Outcome = inactive
RRAS #2: total luciferase, z-score = 1.33; total luciferase, % of control = 108; luciferase per cell, z-score = 1.46; viable cells, % of control = 82.6; Outcome = inactive
RRAS #3: total luciferase, z-score = -0.717; total luciferase, % of control = 67.6; luciferase per cell, z-score = -0.877; viable cells, % of control = 95.2; Outcome = inactive

Further entries:
gene,siRNA no.,"total luciferase, z-score","total luciferase, % of control","luciferase per cell, z-score","viable cells, % of control",Outcome
FBXO31,1,0.0424,82.7,0.639,78.1,inactive
FBXO31,2,-0.655,68.9,-1.25,107,inactive
FBXO31,3,-1.84,45.3,-1.8,81.2,inactive
GRXCR2,1,0.574,93.3,0.429,93.1,inactive
GRXCR2,2,0.516,92.1,0.316,94.7,inactive
GRXCR2,3,-1.51,52,-1.21,79.7,inactive
PCDHA10,1,-1.82,45.8,-0.00499,51.2,inactive
PCDHA10,2,-0.0543,80.8,0.0898,88.2,inactive
PCDHA10,3,0.213,86.1,0.138,92.8,inactive
FTHL17,1,0.529,92.4,0.226,97.3,inactive
FTHL17,2,0.691,95.6,0.456,94.8,inactive
FTHL17,3,-0.202,77.9,-0.793,107,inactive
TXNRD1,1,1.11,104,0.34,106,inactive
TXNRD1,2,-1.05,61,-0.841,85,inactive
TXNRD1,3,-1.36,54.9,-0.18,64.3,inactive
NT5C3B,1,0.359,89,0.173,95.1,inactive
NT5C3B,2,-0.249,76.9,-0.0761,87.7,inactive
NT5C3B,3,1.41,110,0.817,99.1,inactive
SLC34A2,1,-0.543,71.1,-0.876,100,inactive
SLC34A2,2,1.52,112,1.64,81.2,inactive
SLC34A2,3,-0.532,71.3,-1.01,104,inactive
PCBP1,1,-0.237,77.2,-0.186,90.6,inactive
PCBP1,2,0.153,84.9,0.19,90.3,inactive
PCBP1,3,-0.503,71.9,1.06,60.7,inactive
PPP1R21,1,-0.647,69,0.345,70.4,inactive
PPP1R21,2,1.01,102,0.786,92.6,inactive
PPP1R21,3,2.05,123,1.78,85.8,inactive
UBTFL7,1,-1.71,47.9,-1.11,71.7,inactive
UBTFL7,2,-0.697,68,-1.28,107,inactive
UBTFL7,3,1.47,111,1.95,74.3,inactive
PTPN5,1,0.41,90,0.595,86,inactive
PTPN5,2,-0.123,79.4,1.04,67.5,inactive
PTPN5,3,-0.598,70,-0.449,88,inactive
